# Experimental data: the supplement of paper PMC8728848
# The list shows a part of the results.
# B1: AT5G24760(45) (Arabidopsis thaliana), Q8LEB2 (protein)
# chain: MSASSSSFEQPQVITCNAAVAWRAGEPLVMEEVEVSPPQPLEIRIKVVCTSLCRSDLSAWESQSLLPRIFGHEAAGIVESIGEGVTEFEKGDHVLAVFTGECGSCRHCISGKSNMCQVLGMERKGLMHSDQKTRFSIKGKPVYHYCAVSSFSEYTVVHSGCAVKVDPLAPLHKICLLSCGVAAGLGAAWNVADVQKGSSVVIFGLGTVGLSVAQGAKLRGAAQILGVDINPAKAEQAKTFGVTDFINSNDLSEPIPQVIKRMTGGGADFSFECVGDTGIATTALQSCSDGWGMTVTLGVPKAKPEVSAHYGLFLSGKSLKGTLFGGWKPKSDLPSLIDKYMNKEIMIDEFITHNLSFDEINKAFVLMREGKCLRCVLHMPK
# Assays:
# Assay in all cases: glycan array binding signal (z-score within array); higher = stronger binding
# Conditions in all cases: glycan notation: IUPAC condensed, linker removed
# Glc(b1-4)Glc = target: Glc(b1-4)Glc
# Method in brief: (§1)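 Glycan array data came from 3228 arrays in the Consortium for Functional Glycomics database, and only arrays with an available protein sequence were kept. Glycan names were put into IUPAC-condensed notation, and columns mapping to the same glycan were averaged. The binding signal is a within-array Z-score, averaged across arrays of one protein sequence run at different concentrations or buffers and across linkers. A negative Z-score can be read as non-binding.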
# Glc(b1-6)Glc = target: Glc(b1-6)Glc
# Method in brief: as §1
# GlcA(b1-3)Gal = target: GlcA(b1-3)Gal
# Method in brief: as §1
# GlcA(b1-3)GlcNAc = target: GlcA(b1-3)GlcNAc
# Method in brief: as §1
# GlcA(b1-6)Gal = target: GlcA(b1-6)Gal
# Method in brief: as §1
# [1] = target: GlcA3S(b1-3)Gal(b1-4)GlcNAc(b1-2)Man
# Method in brief: as §1
# [2] = target: GlcA3S(b1-3)Gal(b1-4)GlcNAc(b1-3)Gal(b1-4)Glc
# Method in brief: as §1
# [3] = target: GlcNAc(a1-3)Gal(b1-4)GlcNAc
# Method in brief: as §1
# [4] = target: GlcNAc(a1-4)Gal(b1-3)GlcNAc
# Method in brief: as §1
# [5] = target: GlcNAc(a1-4)Gal(b1-4)GalNAc
# Method in brief: as §1
# [6] = target: GlcNAc(a1-4)Gal(b1-4)GlcNAc
# Method in brief: as §1
# [7] = target: GlcNAc(a1-4)Gal(b1-4)GlcNAc(b1-3)Gal(b1-4)Glc
# Method in brief: as §1
# [8] = target: GlcNAc(a1-4)Gal(b1-4)GlcNAc(b1-3)Gal(b1-4)GlcNAc
# Method in brief: as §1
# [9] = target: GlcNAc(a1-4)Gal(b1-4)GlcNAc(b1-3)Gal(b1-4)GlcNAc(b1-3)Gal(b1-4)GlcNAc
# Method in brief: as §1
# [10] = target: GlcNAc(a1-4)Gal(b1-4)GlcNAc(b1-3)Gal(b1-4)[Fuc(a1-3)]GlcNAc(b1-3)Gal(b1-4)[Fuc(a1-3)]GlcNAc
# Method in brief: as §1
# [11] = target: GlcNAc(a1-6)Gal(b1-4)GlcNAc
# Method in brief: as §1
# [12] = target: GlcNAc(b1-2)Gal(b1-3)GalNAc
# Method in brief: as §1
# [13] = target: GlcNAc(b1-2)Man(a1-3)[GlcNAc(b1-2)Man(a1-6)]Man(b1-4)GlcNAc(b1-4)GlcNAc
# Method in brief: as §1
# [14] = target: GlcNAc(b1-2)Man(a1-3)[GlcNAc(b1-2)Man(a1-6)]Man(b1-4)GlcNAc(b1-4)[Fuc(a1-6)]GlcNAc
# Method in brief: as §1
# [15] = target: GlcNAc(b1-2)Man(a1-3)[GlcNAc(b1-4)][GlcNAc(b1-2)Man(a1-6)]Man(b1-4)GlcNAc(b1-4)GlcNAc
# Method in brief: as §1
# [16] = target: GlcNAc(b1-2)Man(a1-3)[GlcNAc(b1-4)][GlcNAc(b1-2)Man(a1-6)]Man(b1-4)GlcNAc(b1-4)[Fuc(a1-6)]GlcNAc
# Method in brief: as §1
# [17] = target: GlcNAc(b1-2)[GlcNAc(b1-4)]Man(a1-3)[GlcNAc(b1-2)Man(a1-6)]Man(b1-4)GlcNAc(b1-4)GlcNAc
# Method in brief: as §1
# [18] = target: GlcNAc(b1-2)[GlcNAc(b1-4)]Man(a1-3)[GlcNAc(b1-4)][GlcNAc(b1-2)Man(a1-6)]Man(b1-4)GlcNAc(b1-4)GlcNAc
# Method in brief: as §1
# [19] = target: GlcNAc(b1-2)[GlcNAc(b1-4)]Man(a1-3)[GlcNAc(b1-4)][GlcNAc(b1-2)[GlcNAc(b1-6)]Man(a1-6)]Man(b1-4)GlcNAc(b1-4)GlcNAc
# Method in brief: as §1
# [20] = target: GlcNAc(b1-2)[GlcNAc(b1-4)]Man(a1-3)[GlcNAc(b1-4)][GlcNAc(b1-2)[GlcNAc(b1-6)]Man(a1-6)]Man(b1-4)GlcNAc(b1-4)[Fuc(a1-6)]GlcNAc
# Method in brief: as §1
# [21] = target: GlcNAc(b1-2)[GlcNAc(b1-6)]Man(a1-6)[GlcNAc(b1-2)Man(a1-3)]Man(b1-4)GlcNAc(b1-4)GlcNAc
# Method in brief: as §1
# [22] = target: GlcNAc(b1-2)[GlcNAc(b1-6)]Man(a1-6)[GlcNAc(b1-2)Man(a1-3)]Man(b1-4)GlcNAc(b1-4)[Fuc(a1-6)]GlcNAc
# Method in brief: as §1
# [23] = target: GlcNAc(b1-2)[GlcNAc(b1-6)]Man(a1-6)[GlcNAc(b1-4)][GlcNAc(b1-2)Man(a1-3)]Man(b1-4)GlcNAc(b1-4)GlcNAc
# Method in brief: as §1
# GlcNAc(b1-3)Fuc = target: GlcNAc(b1-3)Fuc
# Method in brief: as §1
# GlcNAc(b1-3)Gal = target: GlcNAc(b1-3)Gal
# Method in brief: as §1
# [24] = target: GlcNAc(b1-3)Gal(b1-3)GalNAc
# Method in brief: as §1
# GlcNAc(b1-3)Gal(b1-4)Glc = target: GlcNAc(b1-3)Gal(b1-4)Glc
# Method in brief: as §1
# [25] = target: GlcNAc(b1-3)Gal(b1-4)GlcNAc
# Method in brief: as §1
# [26] = target: GlcNAc(b1-3)Gal(b1-4)GlcNAc(b1-2)Man(a1-3)[GlcNAc(b1-3)Gal(b1-4)GlcNAc(b1-2)Man(a1-6)]Man(b1-4)GlcNAc(b1-4)GlcNAc
# Method in brief: as §1
# [27] = target: GlcNAc(b1-3)Gal(b1-4)GlcNAc(b1-2)Man(a1-3)[GlcNAc(b1-3)Gal(b1-4)GlcNAc(b1-2)Man(a1-6)]Man(b1-4)GlcNAc(b1-4)[Fuc(a1-6)]GlcNAc
# Method in brief: as §1
# [28] = target: GlcNAc(b1-3)Gal(b1-4)GlcNAc(b1-2)[GlcNAc(b1-3)Gal(b1-4)GlcNAc(b1-6)]Man(a1-6)[GlcNAc(b1-3)Gal(b1-4)GlcNAc(b1-2)Man(a1-3)]Man(b1-4)GlcNAc(b1-4)GlcNAc
# Method in brief: as §1
# [29] = target: GlcNAc(b1-3)Gal(b1-4)GlcNAc(b1-3)Gal(b1-4)GlcNAc
# Method in brief: as §1
binder,measurement,setting,value
B1,glycan array binding signal (z-score),Glc(b1-4)Glc,-0.46
same,glycan array binding signal (z-score),Glc(b1-6)Glc,0.04
same,glycan array binding signal (z-score),GlcA(b1-3)Gal,-0.534
same,glycan array binding signal (z-score),GlcA(b1-3)GlcNAc,-0.811
same,glycan array binding signal (z-score),GlcA(b1-6)Gal,0.546
same,glycan array binding signal (z-score),[1],-0.653
same,glycan array binding signal (z-score),[2],0.151
same,glycan array binding signal (z-score),[3],0.792
same,glycan array binding signal (z-score),[4],-0.339
same,glycan array binding signal (z-score),[5],-0.535
same,glycan array binding signal (z-score),[6],-0.377
same,glycan array binding signal (z-score),[7],-0.266
same,glycan array binding signal (z-score),[8],-0.776
same,glycan array binding signal (z-score),[9],-0.618
same,glycan array binding signal (z-score),[10],0.899
same,glycan array binding signal (z-score),[11],0.513
same,glycan array binding signal (z-score),[12],2.61
same,glycan array binding signal (z-score),[13],-0.369
same,glycan array binding signal (z-score),[14],0.168
same,glycan array binding signal (z-score),[15],0.795
same,glycan array binding signal (z-score),[16],-0.218
same,glycan array binding signal (z-score),[17],1.01
same,glycan array binding signal (z-score),[18],-0.932
same,glycan array binding signal (z-score),[19],0.154
same,glycan array binding signal (z-score),[20],-0.6
same,glycan array binding signal (z-score),[21],-0.081
same,glycan array binding signal (z-score),[22],-0.197
same,glycan array binding signal (z-score),[23],-1.02
same,glycan array binding signal (z-score),GlcNAc(b1-3)Fuc,-0.77
same,glycan array binding signal (z-score),GlcNAc(b1-3)Gal,-0.714
same,glycan array binding signal (z-score),[24],-0.073
same,glycan array binding signal (z-score),GlcNAc(b1-3)Gal(b1-4)Glc,-0.961
same,glycan array binding signal (z-score),[25],0.839
same,glycan array binding signal (z-score),[26],-0.073
same,glycan array binding signal (z-score),[27],1.7
same,glycan array binding signal (z-score),[28],0.138
same,glycan array binding signal (z-score),[29],0.089

# A second format for part of the listing above.
binder	measurement	setting	value
B1	glycan array binding signal (z-score)	Glc(b1-4)Glc	-0.46
same	glycan array binding signal (z-score)	[14]	0.168
